From US20250042970A1
These are yes or no findings as the source states them, for the method shown. Some binding calls cover weakened binding; strength is not graded here. For some of these results: Sequences can lack the tags named with a protein.

By UniProt entry, the sequences of proteins in these tests, tags left out. Where a name states a change or a piece, a line headed by the entry shows the natural chain unless it says otherwise. Residues count along the entry.
UniProt Q9Y275: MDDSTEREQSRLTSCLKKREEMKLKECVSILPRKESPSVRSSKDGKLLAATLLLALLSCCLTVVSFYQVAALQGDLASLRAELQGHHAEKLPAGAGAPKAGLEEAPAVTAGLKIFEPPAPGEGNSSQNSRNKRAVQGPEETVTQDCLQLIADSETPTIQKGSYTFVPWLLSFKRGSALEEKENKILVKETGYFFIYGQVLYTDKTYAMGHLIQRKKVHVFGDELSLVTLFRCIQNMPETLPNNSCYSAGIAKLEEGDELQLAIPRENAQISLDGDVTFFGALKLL
UniProt Q9WU72, residues 127-309: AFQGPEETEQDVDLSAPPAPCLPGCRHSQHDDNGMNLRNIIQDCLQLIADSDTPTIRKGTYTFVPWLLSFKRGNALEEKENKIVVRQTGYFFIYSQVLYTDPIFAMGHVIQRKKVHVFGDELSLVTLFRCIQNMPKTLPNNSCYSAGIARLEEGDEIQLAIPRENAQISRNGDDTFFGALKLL
UniProt O75888: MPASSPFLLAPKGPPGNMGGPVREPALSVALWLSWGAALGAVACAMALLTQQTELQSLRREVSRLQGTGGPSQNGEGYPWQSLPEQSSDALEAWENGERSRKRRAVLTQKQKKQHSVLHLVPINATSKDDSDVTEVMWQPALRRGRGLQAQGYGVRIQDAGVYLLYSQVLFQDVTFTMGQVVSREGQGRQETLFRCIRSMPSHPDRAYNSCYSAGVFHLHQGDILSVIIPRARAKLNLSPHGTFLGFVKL
UniProt Q9D777, residues 96-241: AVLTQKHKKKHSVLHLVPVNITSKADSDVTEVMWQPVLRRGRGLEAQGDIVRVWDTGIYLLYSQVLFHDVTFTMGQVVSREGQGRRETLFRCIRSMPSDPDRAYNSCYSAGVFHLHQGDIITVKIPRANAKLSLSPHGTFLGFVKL

Columns and labels:
[1] = target: human BAFF (Examples 21-23) (human) (UniProt Q9Y275); experiment: colorimetric ELISA, inhibition curves
[2] = target: murine BAFF (Examples 22-23) (mouse) (UniProt Q9WU72); experiment: SPR (Carterra LSA)
[3] = target: human APRIL (Examples 21-23) (human) (UniProt O75888); experiment: SPR (Carterra LSA)
[4] = target: murine APRIL (Examples 22-23) (mouse) (UniProt Q9D777); experiment: SPR (Carterra LSA)
[5] = target: human BAFF (Examples 21-23) (human) (UniProt Q9Y275); experiment: SPR (Carterra LSA)
[6] = target: human BAFF (Examples 21-23) (human) (UniProt Q9Y275); experiment: colorimetric ELISA, inhibition curve (450 nm against LogM of the fusion protein) for human BAFF; the partner on the plate not given
[7] = target: FLAG-tagged recombinant human APRIL (human) (UniProt O75888); experiment: kinetic exclusion binding assay (KINEXA 3200), huAPRIL in solution
[8] = target: FLAG-tagged cynomolgous APRIL (cynomolgus monkey); experiment: SPR vs BAv8-10
[9] = target: FLAG-tagged human BAFF (human) (UniProt Q9Y275); experiment: SPR vs BAv8-10

B1: BAv9-1 CRD-IgG4 Fc (Fc fusion)
chain: AGQCSQNEYFDHLIRACIPCQLRCSSNTPPLTCQRYCNAGVTNSVGGGGSAESKYGPPCPPCPAPEAAGGPSVFLFPPKPKDTLMISRTPEVTCVVVDVSQEDPEVQFNWYVDGVEVHNAKTKPREEQFNSTYRVVSVLTVLHQDWLNGKEYKCKVSNKGLPSSIEKTISKAKGQPREPQVYTLPPSQEEMTKNQVSLTCLVKGFYPSDIAVEWESNGQPENNYKTTPPVLDSDGSFFLYSRLTVDKSRWQEGNVFSCSVMHEALHNHYTQKSLSLSPGK
- binding [1]: binds
- binding [2]: binds
- binding [3]: binds
- binding [4]: binds
- binding [5]: binds
- binding [6]: binds

Binder: AGQCSQNEYFDHLIRACIPCQLRCSSNTPPLTCQRYCNAGVTNSVGGGGS (Fc fusion, human, not shown: a dimerising Fc or GST) [BAv9-1-5L-pIg23]
- binding [7]: binds

Binder: AGQCSQNEYFDHLIRICIPCQVRCSSNTPPLTCQRYCNAGVTNSVKGTNA (Fc fusion, not shown: a dimerising Fc or GST) [BAv71-Ig]
- binding [8]: binds
- binding [9]: binds

Binder: AGQCSQNEYFDHLIRACTPCQVRCSSNTPPLTCQRYCNAGVTNSVKGTNA (Fc fusion, not shown: a dimerising Fc or GST) [BAv74-Ig]
- binding [8]: binds
- binding [9]: binds

Binder: AGQCSQNEYFDHLVRACTPCQVRCSSNTPPLTCQRYCNAGVTNSVKGTNA (Fc fusion, not shown: a dimerising Fc or GST) [BAv75-Ig]
- binding [8]: binds
- binding [9]: binds
